US20080022467A1, “Disazo dyes and their preparation and use” (ILFORD Imaging Switzerland GmbH, priority 2006, published 2008)

Legend:
[1] = Color saturation C* of printed patches; set-up: key: A: excellent; B: good; C: satisfactory; D: unsatisfactory; conditions: for Color Saturation C* (Class) on Recording Sheet A: A: HP Printing Paper HPP 1122 (paper); for Color Saturation C* (Class) on Recording Sheet B: B: HP Premium Plus (polymer based); for Color Saturation C* (Class) on Recording Sheet C: C: ILFORD Galerie Smooth Glossy (nanoporous); for Color Saturation C* (Class) on Recording Sheet D: D: ILFORD Printasia Premium Photo Glossy Paper (nanoporous); for Color Saturation C* (Class) on Recording Sheet E: E: ILFORD Galerie Classic Gloss Paper (polymer based); for Color Saturation C* (Class) on Recording Sheet F: F: EPSON Premium Glossy Photo Paper (nanoporous); for Color Saturation C* (Class) on Recording Sheet G: G: CANON Photo Paper Pro PR-101 (nanoporous)
[2] = Dye diffusion of printed grid patches on storage; set-up: key: A: excellent; B: good; C: satisfactory; D: unsatisfactory; conditions: 7 days, 40° C., 80% relative humidity; for Dye Diffusion (Class) on Recording Sheet A: A: HP Printing Paper HPP 1122 (paper); for Dye Diffusion (Class) on Recording Sheet B: B: HP Premium Plus (polymer based); for Dye Diffusion (Class) on Recording Sheet C: C: ILFORD Galerie Smooth Glossy (nanoporous); for Dye Diffusion (Class) on Recording Sheet D: D: ILFORD Printasia Premium Photo Glossy Paper (nanoporous); for Dye Diffusion (Class) on Recording Sheet E: E: ILFORD Galerie Classic Gloss Paper (polymer based); for Dye Diffusion (Class) on Recording Sheet F: F: EPSON Premium Glossy Photo Paper (nanoporous); for Dye Diffusion (Class) on Recording Sheet G: G: CANON Photo Paper Pro PR-101 (nanoporous)

Structure (SMILES)	Color Saturation C* (Class) on Recording Sheet A [1]	Color Saturation C* (Class) on Recording Sheet B [1]	Color Saturation C* (Class) on Recording Sheet C [1]	Color Saturation C* (Class) on Recording Sheet D [1]	Color Saturation C* (Class) on Recording Sheet E [1]	Color Saturation C* (Class) on Recording Sheet F [1]	Color Saturation C* (Class) on Recording Sheet G [1]	Dye Diffusion (Class) on Recording Sheet A [2]	Dye Diffusion (Class) on Recording Sheet B [2]	Dye Diffusion (Class) on Recording Sheet C [2]	Dye Diffusion (Class) on Recording Sheet D [2]	Dye Diffusion (Class) on Recording Sheet E [2]	Dye Diffusion (Class) on Recording Sheet F [2]	Dye Diffusion (Class) on Recording Sheet G [2]
O=S(=O)([O-])CCCSc1nc(Nc2ccc(N=Nc3cc(S(=O)(=O)[O-])c4cccc(S(=O)(=O)[O-])c4c3)cc2)nc(Nc2ccc(N=Nc3cc(S(=O)(=O)[O-])c4cccc(S(=O)(=O)[O-])c4c3)cc2)n1.[Na+].[Na+].[Na+].[Na+].[Na+] [Dye No. 10]	A	A	A	A	A	A	A	A	C	B	B	A	A	A
O=S(=O)([O-])CCNc1nc(Nc2ccc(N=Nc3cc(S(=O)(=O)[O-])c4cccc(S(=O)(=O)[O-])c4c3)cc2)nc(Nc2ccc(N=Nc3cc(S(=O)(=O)[O-])c4cccc(S(=O)(=O)[O-])c4c3)cc2)n1.[Na+].[Na+].[Na+].[Na+].[Na+] [Dye No. 11]	A	A	A	A	A	A	A	A	B	B	A	A	A	A
CN(CCS(=O)(=O)[O-])c1nc(Nc2ccc(N=Nc3cc(S(=O)(=O)[O-])c4cccc(S(=O)(=O)[O-])c4c3)cc2)nc(Nc2ccc(N=Nc3cc(S(=O)(=O)[O-])c4cccc(S(=O)(=O)[O-])c4c3)cc2)n1.[Na+].[Na+].[Na+].[Na+].[Na+] [Dye No. 14]	A	A	A	A	A	A	A	A	B	B	A	B	A	A
O=S(=O)([O-])CCCSc1nc(Nc2ccc(N=Nc3ccc4cc(S(=O)(=O)[O-])cc(S(=O)(=O)[O-])c4c3)cc2)nc(Nc2ccc(N=Nc3ccc4cc(S(=O)(=O)[O-])cc(S(=O)(=O)[O-])c4c3)cc2)n1.[Na+].[Na+].[Na+].[Na+].[Na+] [Dye No. 15]	B	B	B	B	C	B	B	A	C	C	B	B	B	B
O=S(=O)([O-])CCNc1nc(Nc2ccc(N=Nc3ccc4cc(S(=O)(=O)[O-])cc(S(=O)(=O)[O-])c4c3)cc2)nc(Nc2ccc(N=Nc3ccc4cc(S(=O)(=O)[O-])cc(S(=O)(=O)[O-])c4c3)cc2)n1.[Na+].[Na+].[Na+].[Na+].[Na+] [Dye No. 16]	C	B	A	B	C	A	B	A	C	A	A	B	A	A
CN(CCS(=O)(=O)[O-])c1nc(Nc2ccc(N=Nc3ccc4cc(S(=O)(=O)[O-])cc(S(=O)(=O)[O-])c4c3)cc2)nc(Nc2ccc(N=Nc3ccc4cc(S(=O)(=O)[O-])cc(S(=O)(=O)[O-])c4c3)cc2)n1.[Na+].[Na+].[Na+].[Na+].[Na+] [Dye No. 17]	D	B	A	C	C	B	B	A	C	B	A	B	B	B
O=C([O-])c1cc(Nc2nc(Nc3ccc(N=Nc4cc(S(=O)(=O)[O-])c5cccc(S(=O)(=O)[O-])c5c4)cc3)nc(Nc3ccc(N=Nc4cc(S(=O)(=O)[O-])c5cccc(S(=O)(=O)[O-])c5c4)cc3)n2)cc(C(=O)[O-])c1.[Na+].[Na+].[Na+].[Na+].[Na+].[Na+] [Dye No. 18]	C	A	A	A	A	A	A	A	C	B	A	A	A	A
O=S(=O)([O-])c1cc(/N=N/c2ccc(Nc3nc(NCCO)nc(Nc4ccc(/N=N/c5cc(S(=O)(=O)[O-])c6cccc(S(=O)(=O)[O-])c6c5)cc4)n3)cc2)cc2c(S(=O)(=O)[O-])cccc12.[Na+].[Na+].[Na+].[Na+] [Dye No. I, reference compound]	B	A	A	A	A	A	A	B	C	C	A	C	C	A
Cc1cc(Nc2nc(NCCO)nc(Nc3ccc(/N=N/c4cc(S(=O)(=O)[O-])c5cccc(S(=O)(=O)[O-])c5c4)c(C)c3)n2)ccc1/N=N/c1cc(S(=O)(=O)[O-])c2cccc(S(=O)(=O)[O-])c2c1.[Na+].[Na+].[Na+].[Na+] [Dye No. II, Direct Yellow 86, reference compound]	D	D	D	D	D	D	D	A	D	C	B	C	C	A
O=S(=O)([O-])c1cc(/N=N/c2ccc(Nc3nc(NCCCN4CCOCC4)nc(Nc4ccc(/N=N/c5cc(S(=O)(=O)[O-])c6cccc(S(=O)(=O)[O-])c6c5)cc4)n3)cc2)cc2c(S(=O)(=O)[O-])cccc12.[Na+].[Na+].[Na+].[Na+] [Dye No. IV, reference compound]	C	B	C	B	B	A	B	A	C	B	A	B	A	B
